# The inconclusive results got no clear call from the source; some entries with a clear call stand among them for comparison. Potencies of inconclusive entries are doubtful fits and often do not repeat. The source made the active and inactive calls. Calls come from the whole dose curve; as a rule, active = well fitted cell-killing curve with a large enough effect; inconclusive = small, poorly fitted or top-dose-only effect, or effect the other way; inactive = no such curve, though single readings can be large or run the other way.
# System: CASKI
# Assay: Confirmatory qHTS for gynecologic anti-cancer compounds from libraries of approved drugs and bioactive compounds; note: nearly all actives have a fitted effect of over 55% in size
# Conditions: gynecologic cancer cell panel viability, ATPlite luminescence, 48 h; series mostly up to 57.6 µM
# Method in brief: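 ATPlite luminescence read-out of cell viability; IC50 from 11-point 1:3 titrations, 57.5 uM to 0.977 nM, 48 h compound exposure at 37 C, 5% CO2. Cells seeded at 1,000/well 16 h before dosing.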
# % is set by controls: 0 for no effect and ±100 for the full control effect; potency is the fitted concentration of half-maximal effect.
Compound,Potency,"activity change, negative = viability loss"
COCCOc1nc(-c2ccc(Cl)c(Cl)c2)n(-c2ccc(NC(=O)CCl)cc2)n1,inactive,–
COc1cc2ncnc(Nc3ccc(F)c(Cl)c3)c2cc1OCCCN1CCOCC1,"inconclusive: 6.11 µM [cytotoxic, partial curve]",–
COc1cc2c(NC3CCN(C(C)C)CC3)nc(C3CCCCC3)nc2cc1OCCCN1CCCC1,"inconclusive: 30.6 µM [cytotoxic, single point]",–
CC(C)(C(=O)NCC(F)(F)C(F)(F)F)C(=O)NC1C(=O)Nc2ccccc2-c2ccccc21 (configuration not stated),"inconclusive: 0.485 µM [cytotoxic, single point]",–
Nc1ccn([C@@H]2O[C@H](CO)[C@@H](O)C2(F)F)c(=O)n1,"inconclusive: 15.3 µM [cytotoxic, partial curve]",–
Cc1ccn(-c2ccc(-c3ncco3)cc2)c(=O)c1-c1ccc2nc(N)ncc2c1,"inconclusive: 0.153 µM [rising, full curve, poor fit]",–
Cc1nc(N)ncc1-c1nc(N2CCOCC2)c2sc(C(C)(C)O)cc2n1,active: 0.769 µM,–
N#CC1(c2cccc(C(=O)Nc3cc(Oc4ccc5nc(NC(=O)C6CC6)sc5n4)ccc3F)c2Cl)CC1,"inconclusive: 10.9 µM [cytotoxic, partial curve]",–
COc1cc(Nc2ncc3c(n2)-c2ccc(Cl)cc2C(c2c(F)cccc2OC)=NC3)ccc1C(=O)O,active: 19.3 µM,–
O=c1cc(CN2CCOCC2)occ1OCCCCCSc1ccnc2cc(C(F)(F)F)ccc12,active: 24.3 µM,–
CN(C)/N=N/c1nc[nH]c1C(N)=O,inactive,–
COc1cc2c(cc1-c1c(C)noc1C)ncc1[nH]c(=O)n(C(C)c3ccccn3)c12 (configuration not stated),"inconclusive: 24.3 µM [cytotoxic, single point]",–
O=c1c(-c2ccc(O)cc2)coc2cc(O)cc(O)c12,"inconclusive: 24.3 µM [cytotoxic, partial curve]",–
CCS(=O)(=O)N1CCN(c2ccc(Nc3ncc(C(N)=O)c(NC4CC4)n3)cc2)CC1,active: 10.9 µM,–
OCc1ccc(-c2ccc(-c3ccc(CO)s3)o2)s1,inactive,–
O=c1[nH]c(=O)n([C@H]2C[C@H](O)[C@@H](CO)O2)cc1Br,inactive,–
Nc1ccc(C(=O)Nc2cccc(-c3nc(N4CCOCC4)c4oc5ncccc5c4n3)c2)cn1,"inconclusive: 3.85 µM [cytotoxic, full curve]",–
CCC(=O)N1CCN(c2ccc(-n3c(=O)ccc4cnc5ccc(-c6cnc7ccccc7c6)cc5c43)cc2C(F)(F)F)CC1,–,inactive: -25.9% [at 10.7 µM]
Cc1nc(N)nc(N)c1-c1ccc(Cl)c(Cl)c1,"inconclusive: 6.11 µM [cytotoxic, full curve, poor fit]",–
COc1c(C)c2c(c(O)c1C/C=C(\C)CCC(=O)O)C(=O)OC2,inactive,–
CC(C)CC(=O)Nc1n[nH]c2c1CN(C(=O)C1CCN(C)CC1)C2(C)C,active: 3.43 µM,–
Cn1cnc2c(F)c(Nc3ccc(Br)cc3F)c(C(=O)NOCCO)cc21,"inconclusive: 13.7 µM [cytotoxic, partial curve]",–

# Reprinted at random: two compounds from above
Compound,Potency,"activity change, negative = viability loss"
Nc1ccn([C@@H]2O[C@H](CO)[C@@H](O)C2(F)F)c(=O)n1,"inconclusive: 15.3 µM [cytotoxic, partial curve]",–
OCc1ccc(-c2ccc(-c3ccc(CO)s3)o2)s1,inactive,–

# Reference: PubChem BioAssay AID1345085 (National Center for Advancing Translational Sciences (NCATS), 2018)
